In the supplement of paper PMC12595434, “Development of retinoid nuclear receptor pathway antagonists through targeting aldehyde dehydrogenase 1A3” (iScience, 2025) one finds melting temperature shift data, which are given here for 33 targets.

Chains of the proteins cited; added tags and fusions are not shown. Lines headed by an entry give the natural chain unless they say otherwise; changes in a name come on top.
UniProt P40938, whole entry: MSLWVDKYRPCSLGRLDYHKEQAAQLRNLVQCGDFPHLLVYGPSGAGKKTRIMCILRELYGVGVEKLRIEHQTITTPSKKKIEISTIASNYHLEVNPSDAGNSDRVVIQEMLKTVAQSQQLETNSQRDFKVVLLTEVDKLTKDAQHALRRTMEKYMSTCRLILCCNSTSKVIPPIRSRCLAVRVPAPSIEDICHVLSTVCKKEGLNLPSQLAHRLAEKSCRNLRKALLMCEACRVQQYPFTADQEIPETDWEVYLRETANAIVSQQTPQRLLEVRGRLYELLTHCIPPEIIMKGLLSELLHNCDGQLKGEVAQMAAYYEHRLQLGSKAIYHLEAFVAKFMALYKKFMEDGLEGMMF
UniProt P40937, whole entry: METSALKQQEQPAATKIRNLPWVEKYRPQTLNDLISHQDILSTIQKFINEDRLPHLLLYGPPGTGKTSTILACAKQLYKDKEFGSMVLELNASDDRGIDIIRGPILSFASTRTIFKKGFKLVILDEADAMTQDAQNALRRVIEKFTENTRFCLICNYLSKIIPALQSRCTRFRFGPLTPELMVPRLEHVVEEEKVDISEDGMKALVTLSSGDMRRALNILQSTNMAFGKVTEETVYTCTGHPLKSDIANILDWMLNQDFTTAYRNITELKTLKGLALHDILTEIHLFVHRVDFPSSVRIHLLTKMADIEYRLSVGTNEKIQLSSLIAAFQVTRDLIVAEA
UniProt P49459, whole entry: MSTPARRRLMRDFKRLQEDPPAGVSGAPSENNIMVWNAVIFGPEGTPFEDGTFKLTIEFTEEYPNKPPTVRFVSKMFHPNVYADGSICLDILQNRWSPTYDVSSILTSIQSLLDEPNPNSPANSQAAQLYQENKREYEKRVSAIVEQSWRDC
UniProt P41227: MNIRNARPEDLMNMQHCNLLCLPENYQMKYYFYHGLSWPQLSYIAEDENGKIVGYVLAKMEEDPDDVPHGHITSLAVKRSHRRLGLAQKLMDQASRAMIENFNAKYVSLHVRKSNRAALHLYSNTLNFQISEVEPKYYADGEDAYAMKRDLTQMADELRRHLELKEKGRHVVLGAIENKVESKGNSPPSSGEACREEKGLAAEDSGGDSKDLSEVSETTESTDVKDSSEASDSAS
UniProt P51690: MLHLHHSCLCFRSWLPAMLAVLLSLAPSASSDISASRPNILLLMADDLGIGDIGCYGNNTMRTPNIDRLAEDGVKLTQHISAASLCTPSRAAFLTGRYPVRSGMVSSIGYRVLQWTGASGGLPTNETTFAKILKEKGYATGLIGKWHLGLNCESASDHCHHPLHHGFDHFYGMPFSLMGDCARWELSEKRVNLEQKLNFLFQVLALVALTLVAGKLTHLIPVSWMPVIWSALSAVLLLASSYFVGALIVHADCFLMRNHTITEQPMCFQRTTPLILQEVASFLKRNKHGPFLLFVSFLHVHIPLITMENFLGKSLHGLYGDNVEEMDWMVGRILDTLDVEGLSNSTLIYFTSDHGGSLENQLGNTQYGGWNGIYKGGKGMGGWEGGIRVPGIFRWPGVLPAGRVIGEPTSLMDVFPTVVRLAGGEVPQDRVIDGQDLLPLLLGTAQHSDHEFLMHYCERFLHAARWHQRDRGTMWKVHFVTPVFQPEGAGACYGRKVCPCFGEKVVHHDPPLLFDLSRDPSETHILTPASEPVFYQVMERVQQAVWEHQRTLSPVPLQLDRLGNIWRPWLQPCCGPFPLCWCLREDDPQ
UniProt P49643: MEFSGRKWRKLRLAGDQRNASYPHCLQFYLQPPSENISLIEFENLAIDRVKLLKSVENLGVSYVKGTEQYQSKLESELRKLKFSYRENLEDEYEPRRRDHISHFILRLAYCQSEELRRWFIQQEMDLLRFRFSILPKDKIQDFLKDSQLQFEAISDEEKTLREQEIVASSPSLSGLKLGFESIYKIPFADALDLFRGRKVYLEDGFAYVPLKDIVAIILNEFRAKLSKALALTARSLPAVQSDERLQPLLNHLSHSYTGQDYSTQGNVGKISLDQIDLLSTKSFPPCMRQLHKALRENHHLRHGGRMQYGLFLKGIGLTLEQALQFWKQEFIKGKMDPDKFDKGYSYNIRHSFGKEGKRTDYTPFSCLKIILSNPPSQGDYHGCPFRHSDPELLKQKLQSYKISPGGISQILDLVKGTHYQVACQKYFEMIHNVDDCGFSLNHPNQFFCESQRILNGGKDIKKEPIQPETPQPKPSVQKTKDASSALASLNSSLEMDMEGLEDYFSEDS
UniProt P40855: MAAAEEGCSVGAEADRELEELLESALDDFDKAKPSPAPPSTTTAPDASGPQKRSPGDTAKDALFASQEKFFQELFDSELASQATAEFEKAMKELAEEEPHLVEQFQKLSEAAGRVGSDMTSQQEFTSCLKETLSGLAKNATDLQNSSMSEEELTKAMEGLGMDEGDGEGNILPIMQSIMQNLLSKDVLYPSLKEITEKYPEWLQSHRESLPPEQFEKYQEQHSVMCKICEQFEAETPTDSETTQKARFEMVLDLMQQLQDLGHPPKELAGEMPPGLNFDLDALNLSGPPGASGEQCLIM
UniProt P48729: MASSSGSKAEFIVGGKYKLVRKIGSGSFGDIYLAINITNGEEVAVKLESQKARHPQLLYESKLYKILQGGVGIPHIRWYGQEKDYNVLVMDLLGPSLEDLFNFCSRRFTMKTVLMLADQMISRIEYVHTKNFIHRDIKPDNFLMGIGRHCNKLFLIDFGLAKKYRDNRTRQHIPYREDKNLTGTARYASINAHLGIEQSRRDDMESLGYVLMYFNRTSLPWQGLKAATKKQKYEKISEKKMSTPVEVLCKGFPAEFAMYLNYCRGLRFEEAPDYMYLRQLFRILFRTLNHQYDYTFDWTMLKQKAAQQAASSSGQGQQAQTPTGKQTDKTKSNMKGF
UniProt P38398, whole entry, looked up: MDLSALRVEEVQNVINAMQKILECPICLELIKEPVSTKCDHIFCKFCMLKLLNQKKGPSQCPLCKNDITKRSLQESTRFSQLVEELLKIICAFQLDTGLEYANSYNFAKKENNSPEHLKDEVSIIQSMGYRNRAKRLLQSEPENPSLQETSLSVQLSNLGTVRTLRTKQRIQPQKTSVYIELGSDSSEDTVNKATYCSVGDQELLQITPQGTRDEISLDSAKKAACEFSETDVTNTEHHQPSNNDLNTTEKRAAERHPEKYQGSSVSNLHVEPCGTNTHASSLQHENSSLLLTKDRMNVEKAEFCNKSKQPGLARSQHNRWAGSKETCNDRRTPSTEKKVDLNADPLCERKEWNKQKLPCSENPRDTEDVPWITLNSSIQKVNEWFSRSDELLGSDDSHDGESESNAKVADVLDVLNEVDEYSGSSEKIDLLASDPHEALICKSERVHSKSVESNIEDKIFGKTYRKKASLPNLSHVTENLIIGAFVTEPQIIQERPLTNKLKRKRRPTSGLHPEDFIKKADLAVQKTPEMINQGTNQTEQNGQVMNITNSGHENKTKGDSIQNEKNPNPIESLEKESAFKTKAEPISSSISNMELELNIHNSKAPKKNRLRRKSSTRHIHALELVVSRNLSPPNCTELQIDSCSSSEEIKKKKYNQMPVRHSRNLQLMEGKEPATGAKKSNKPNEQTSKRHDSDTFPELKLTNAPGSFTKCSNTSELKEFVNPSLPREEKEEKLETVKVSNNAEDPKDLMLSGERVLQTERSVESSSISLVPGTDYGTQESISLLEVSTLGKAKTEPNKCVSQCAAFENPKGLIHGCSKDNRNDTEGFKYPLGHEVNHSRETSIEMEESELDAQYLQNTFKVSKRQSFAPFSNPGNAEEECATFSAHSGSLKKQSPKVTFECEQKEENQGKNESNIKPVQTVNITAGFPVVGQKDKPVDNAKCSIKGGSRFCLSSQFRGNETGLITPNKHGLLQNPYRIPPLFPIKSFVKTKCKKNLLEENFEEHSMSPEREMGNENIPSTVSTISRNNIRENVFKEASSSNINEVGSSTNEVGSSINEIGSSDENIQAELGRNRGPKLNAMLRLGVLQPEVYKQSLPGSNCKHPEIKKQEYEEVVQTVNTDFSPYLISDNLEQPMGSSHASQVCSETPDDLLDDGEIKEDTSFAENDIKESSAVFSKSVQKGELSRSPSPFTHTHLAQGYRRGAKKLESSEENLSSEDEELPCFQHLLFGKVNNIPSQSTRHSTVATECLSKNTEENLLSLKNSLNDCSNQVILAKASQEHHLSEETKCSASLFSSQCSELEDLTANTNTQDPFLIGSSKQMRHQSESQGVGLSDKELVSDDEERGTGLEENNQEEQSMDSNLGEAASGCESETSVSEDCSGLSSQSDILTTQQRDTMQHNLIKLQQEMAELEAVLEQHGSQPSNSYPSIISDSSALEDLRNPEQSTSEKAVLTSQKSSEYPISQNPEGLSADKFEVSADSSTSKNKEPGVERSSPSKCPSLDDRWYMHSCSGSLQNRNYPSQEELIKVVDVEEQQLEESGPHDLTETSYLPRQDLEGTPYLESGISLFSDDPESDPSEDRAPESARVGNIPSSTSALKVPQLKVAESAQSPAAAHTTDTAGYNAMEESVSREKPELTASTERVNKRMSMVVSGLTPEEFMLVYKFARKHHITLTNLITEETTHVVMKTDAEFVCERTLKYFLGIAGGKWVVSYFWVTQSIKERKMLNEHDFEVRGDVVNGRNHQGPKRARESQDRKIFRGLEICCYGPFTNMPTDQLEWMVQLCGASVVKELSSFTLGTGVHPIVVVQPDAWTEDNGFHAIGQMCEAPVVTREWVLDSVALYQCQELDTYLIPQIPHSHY
UniProt P50579: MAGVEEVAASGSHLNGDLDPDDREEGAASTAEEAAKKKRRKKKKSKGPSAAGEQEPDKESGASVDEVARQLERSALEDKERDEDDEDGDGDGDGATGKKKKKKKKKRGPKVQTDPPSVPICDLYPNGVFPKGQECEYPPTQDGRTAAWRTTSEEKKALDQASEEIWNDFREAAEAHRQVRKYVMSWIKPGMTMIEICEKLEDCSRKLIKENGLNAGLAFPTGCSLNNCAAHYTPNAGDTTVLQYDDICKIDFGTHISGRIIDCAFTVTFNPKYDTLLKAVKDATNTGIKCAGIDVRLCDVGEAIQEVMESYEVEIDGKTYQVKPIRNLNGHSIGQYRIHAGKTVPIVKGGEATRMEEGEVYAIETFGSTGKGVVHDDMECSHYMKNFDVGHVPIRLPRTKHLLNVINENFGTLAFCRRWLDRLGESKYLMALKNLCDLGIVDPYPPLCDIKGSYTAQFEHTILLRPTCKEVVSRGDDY
UniProt P50454: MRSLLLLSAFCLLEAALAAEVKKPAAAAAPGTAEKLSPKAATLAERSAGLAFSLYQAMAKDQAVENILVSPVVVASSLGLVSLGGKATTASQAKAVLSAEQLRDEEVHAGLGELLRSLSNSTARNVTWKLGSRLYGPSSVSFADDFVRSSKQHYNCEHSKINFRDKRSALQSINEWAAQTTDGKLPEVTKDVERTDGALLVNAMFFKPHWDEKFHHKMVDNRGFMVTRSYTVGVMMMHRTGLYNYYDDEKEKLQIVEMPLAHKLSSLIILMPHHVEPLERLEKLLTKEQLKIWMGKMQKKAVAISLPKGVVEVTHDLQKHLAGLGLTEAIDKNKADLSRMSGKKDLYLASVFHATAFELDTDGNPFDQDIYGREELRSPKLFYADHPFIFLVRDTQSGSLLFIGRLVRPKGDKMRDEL
UniProt P49841: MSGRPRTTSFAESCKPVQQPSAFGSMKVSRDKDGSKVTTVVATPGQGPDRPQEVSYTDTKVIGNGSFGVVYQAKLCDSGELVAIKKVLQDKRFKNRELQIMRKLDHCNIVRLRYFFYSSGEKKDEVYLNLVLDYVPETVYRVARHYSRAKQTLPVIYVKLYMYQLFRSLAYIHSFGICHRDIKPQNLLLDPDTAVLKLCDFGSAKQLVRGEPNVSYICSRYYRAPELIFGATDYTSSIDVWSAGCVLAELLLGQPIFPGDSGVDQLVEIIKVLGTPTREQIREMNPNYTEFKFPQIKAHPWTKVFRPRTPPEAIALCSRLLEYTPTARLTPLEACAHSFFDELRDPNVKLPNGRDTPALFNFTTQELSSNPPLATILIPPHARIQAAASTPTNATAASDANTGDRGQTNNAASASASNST
UniProt P48723: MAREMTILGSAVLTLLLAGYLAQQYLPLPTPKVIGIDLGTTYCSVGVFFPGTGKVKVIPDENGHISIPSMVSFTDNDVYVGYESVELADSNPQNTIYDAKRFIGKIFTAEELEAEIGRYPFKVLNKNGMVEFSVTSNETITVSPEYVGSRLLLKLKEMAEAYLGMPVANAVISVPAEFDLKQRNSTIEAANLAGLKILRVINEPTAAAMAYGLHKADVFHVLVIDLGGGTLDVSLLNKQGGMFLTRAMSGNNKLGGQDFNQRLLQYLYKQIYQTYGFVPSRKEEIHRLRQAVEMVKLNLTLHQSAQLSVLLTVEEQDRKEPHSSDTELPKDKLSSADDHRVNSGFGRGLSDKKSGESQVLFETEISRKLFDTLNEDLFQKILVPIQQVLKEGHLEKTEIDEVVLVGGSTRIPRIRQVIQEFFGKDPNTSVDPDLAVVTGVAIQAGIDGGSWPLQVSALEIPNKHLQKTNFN

Some of the results follow. The data scatter; read single values as rough.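 Tm was set to 64 °C where no melting was found, and many curves are irregular.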

Compound in the first experiment: CCc1cnccc1C(=O)Nc1cc2c(cc1F)NC(=O)CC2
The experiment is described as follows: melting temperature shift (DMSO Tm minus MBE1-treated Tm) in cellular thermal proteome profiling; higher = less thermal stabilization by MBE1 (negative = stabilized by MBE1). As to conditions: A375; MBE1 concentration: 100 nM.
Consider RFC3 (UniProt P40938), for which the melting temperature shift is -0.743 °C.
For the target GCLC (UniProt P48506), the melting temperature shift is -0.607 °C.
The same measure, in the same setting: as for RFC5 (UniProt P40937), the figure is 0.867 °C.
On the same count and under the same terms, as for UBE2A (UniProt P49459), the figure is -0.382 °C.
Same read-out and setting: next, HLCS (UniProt P50747): 0.855 °C.

Staying with this experiment, now noted: A375; MBE1 concentration: 1 uM.
Turning to UniProt P46821, the melting temperature shift was 0.691 °C.
Take NUDT2 (UniProt P50583): the melting temperature shift was 1.72 °C.
The same measure, in the same setting: next, MECP2 (UniProt P51608): -0.418 °C.
Take NAA10 (UniProt P41227): the melting temperature shift is -0.201 °C.
Same read-out and setting: next, TXLNA (UniProt P40222): 0.0794 °C; UniProt P51690: -0.372 °C; PRIM2 (UniProt P49643): 0.202 °C.
On the same count and under the same terms, next, UniProt P40855: -2.81 °C; UniProt P48729: 0.122 °C.
With PAPOLA (UniProt P51003), the melting temperature shift came to 0.104 °C.
The same measure, in the same setting: as for UniProt P49674, the figure is 0.8 °C; as for UniProt P38398, -0.551 °C; as for METAP2 (UniProt P50579), -0.25 °C.
On the same count and under the same terms, next, UniProt P46379: 0.128 °C; UniProt P41162: -0.269 °C.
Still for that read-out and setting: next, HADHA (UniProt P40939): 0.464 °C; TRAPPC10 (UniProt P48553): 0.721 °C; PIGA (UniProt P37287): -1.43 °C.
For the target SERPINH1 (UniProt P50454), the melting temperature shift worked out at 0.704 °C.
Same read-out and setting: next, ANP32A (UniProt P39687): 1.33 °C; SRP14 (UniProt P37108): -0.574 °C.
For HCFC1 (UniProt P51610), the melting temperature shift came out at 0.0201 °C.
Regarding UniProt P49841, the melting temperature shift is -0.503 °C.
RANBP2 (UniProt P49792): the melting temperature shift was -0.237 °C.
The same measure, in the same setting: as for DAP3 (UniProt P51398), the figure is -2.7 °C; as for HSPA13 (UniProt P48723), 0.0045 °C.
Same read-out and setting: next, KDM5C (UniProt P41229): -0.3 °C; UniProt P49448: -0.591 °C.
